## Primary screen of a compound library

The values are deposited in ChEMBL (CHEMBL3988442, “University of Dundee, Small-Polar-MMV Screening Library” (2021)).

Values are the deposited “Percent Effect”, in %. How 0% and 100% were set is not recorded. Most values in the screen are low, and negative values occur. Compounds were drawn at random from those tested, without regard to their results. Two or more numbers in one place are separate tests of the same structure; such repeats can differ widely.

A: 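Growth of Mycobacterium tuberculosis over 3 days (7H9 medium with glucose and tyloxapol); the read-out is not stated. Concentration: 50 µM. Higher reads as more growth inhibition (inferred: compounds with an IC50 in retests scored well above the rest). Of about 69,000 compounds tested this way, about 760 (1.1%) reached 50% or more in at least one test.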
B: 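Whole-cell growth test on Mycobacterium tuberculosis, read after 4 days in a medium based on cholesterol and the lipid DPPC; the read-out is not stated. Tested at 50 µM. The record gives no direction; compounds that gave an IC50 in retests scored well above the rest, so higher reads as more growth inhibition. About 69,000 compounds were tested under these conditions; 0.54% (about 370) showed 50% or more at least once.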

Compound | A | B
Cc1ccc(-c2cc(CNC(=O)NC3CCCCNC3=O)on2)cc1 (stereo not drawn) | 36.29 | 7.711
Cc1cnn(C2CN(Cc3noc(-c4ccccc4)n3)C2)c1 | 35.74 | 33.32
COCC1CN(Cc2ccncc2)Cc2nn(CC3CC3)cc21.O=C(O)C(F)(F)F.O=C(O)C(F)(F)F (stereo not drawn) | -6.349 | -2.576
CC(C(=O)Nc1sccc1C(N)=O)N(C)CCOc1ccccc1 (stereo not drawn) | -1.064 | -33.29
Cc1nc(Nc2ccccn2)cc(C2CCCN2C2CCOCC2)n1 (stereo not drawn) | 5.493 | -8.705
O=C(NCc1cccnc1)NCC(O)c1cccc(C(F)(F)F)c1 (stereo not drawn) | -4.499 | -6.753
c1cc(-c2ccc(CN3CCC4(CCNCC4)CC3)s2)[nH]n1 | 5.363 and -3.21 | -18.99
O=C(NCCc1ccn(-c2ccccc2)n1)N1CCSCC1 | -3.077 | 4.218
O=C(O)C(F)(F)F.O=C(O)C(F)(F)F.[H][C@@]12CN(CC)C[C@]1([H])[C@H](OC)CCN2S(=O)(=O)c1cccnc1 | -65.05 | -56.27
O=C(O)C(F)(F)F.[H][C@@]12C[C@H](C(=O)N3CCCC3)CN(C(=O)c3ccncc3)[C@]1([H])CCO2 | -0.4345 and 2.272 | -7.522
CC(C)N1CCC(NC(=O)c2cn(-c3ccc(F)cc3)nn2)C1 (stereo not drawn) | -24.02 | 2.468
Cc1cc(C)c(CNC(=O)N(C)Cc2ccoc2)c(=O)[nH]1 | 21.5 | -6.789
COc1cccc2c1N(Cc1nc(C3CC3)no1)CCC2 | 16.46 and 6.045 | -17.73
CC(C(=O)O)N1CCc2onc(-c3ccc4c(c3)OCO4)c2C1 (stereo not drawn) | 8.378 and -1.128 | -13.66
Cc1cnn(CC(C)NCC(=O)Nc2ccc(Cl)cn2)c1 (stereo not drawn) | -11.02 and -3.89 | -11.59
Cn1ncc2c1CCCN(C(=O)C1CC1)C2 | -23.06 | 4.164 and -0.7632
CC(C)(C)c1cnc(CN2CCCS(=O)(=O)CC2)o1 | -4.931 | -9.575
COc1cccc2c1OCC(C(=O)N1CCC(N3CCSCC3)CC1)C2 (stereo not drawn) | -6.943 | -1.121 and -6.507
O=C(c1ccc(C(F)(F)F)cc1)N1C[C@@H](CN2CCCCC2)[C@@H](CO)C1 | -7.814 | -7.955 and -0.1523
CCc1nc(CN(C(C)=O)C2CCN(CC3CCOCC3)C2)no1 (stereo not drawn) | -32 | -13.12
CC(C(=O)NCC1(c2cccc(Br)c2)CCC1)S(C)(=O)=O (stereo not drawn) | 4.291 | -3.747
O=c1[nH][nH]cc1-c1ccnc(NCCc2cccc(O)c2)n1 | 9.993 | -15.08
O=C(O)C(F)(F)F.[H][C@]12CC[C@@]3(N=C(C)N(CC4CC4)C3=O)[C@@]1([H])CN(Cc1ccccc1C)C2 | -10.18 | -0.8487 and -5.677
Cc1cc(S(C)(=O)=O)c(C)c(S(=O)(=O)N2CCN(C)CC2)c1 | -12.16 | 30.5
FC1(F)CCN(Cc2ccccn2)CC12CCN(c1ncccn1)C2.O=C(O)C(F)(F)F (stereo not drawn) | 12 | -14.18
CC(C)c1cnc(CN(C)C2CCN(CCn3cc(C#N)cn3)C2)o1 (stereo not drawn) | 14.12 | -28.64
c1cnc(-c2nc(CN3CCCN(Cc4cccs4)CC3)cs2)nc1 | 4.809 | -10.56
O=C(NC(c1ccc(Cl)cc1)C(F)(F)F)c1nc(=O)[nH][nH]1 (stereo not drawn) | 17.88 | -25.9
CC(C)c1nc2c(n1C)CCN(Cc1nc(-c3cccs3)no1)C2 | 48.6 | -1.382
CS(=O)(=O)NC1CCN(C(=O)c2cnc(-c3cccnc3)nc2)CC1 | 18.35 | 10.87
Cc1ccccc1CCCN1C(=O)CC2(CCSC2)C1=O (stereo not drawn) | 14.79 and 36.84 | 17.98
[H][C@]12CC[C@]([H])(CN(CC(=O)N(C)C)C1)N(Cc1ccc(Cl)cc1Cl)C2 | 11.17 | 5.133
O=C(NCCC1Cc2ccccc2C1)N1CCCC(O)C1 (stereo not drawn) | -16.49 and -9.279 | -2.078
CC(C)c1cnc(CN(C)C2CCN(CCc3cnn(C)c3)C2)o1 (stereo not drawn) | -8.314 | -5.208
CC(C)c1cc(C(=O)N2CCCC3(CCNC3)C2)no1 (stereo not drawn) | -28.88 | -3.801
O=C1CC(c2ccc(C(=O)O)cc2)c2ncn(-c3cccnc3)c2N1 (stereo not drawn) | -47.53 | -6.697 and -34.52
CC(C)OCCCNC(=O)NCc1cccc(-n2ccnc2)c1 | 24.81 | 17.56
COC(=O)[C@H]1CN(S(C)(=O)=O)CCN1S(C)(=O)=O | -17.74 and 9.229 | 16.25
CCC1CN(C(=O)c2[nH]nc(C)c2Br)CCO1 (stereo not drawn) | 3.982 | -1.851
CCn1cnnc1CCNC(=O)c1ccc(F)c(Br)c1 | 2.946 and -7.724 | 17.38
CCN1CCN(C(=O)C(C)N2CCN(Cc3nccn3C)CC2)CC1 (stereo not drawn) | -5.308 | 3.199
COc1ccc(Cl)cc1NCC(=O)NCCNc1cnccn1 | -12.11 | -15.04
Cc1ccc(CN(C)C(=O)CCn2c(=O)n(C)c3ccccc32)o1 | -2.634 | 7.154
CN(C)C(=O)N1CCCC2(CCN(Cc3ccncc3)C2)C1 (stereo not drawn) | 1.372 and -6.659 | 6.98
N[C@H]1CN(S(=O)(=O)c2ccccc2)C[C@@H]1C1CC1 | 30.68 | 4.908
COc1cccc(CC(=O)N2CCCSCC2CN2CCCC2)c1 (stereo not drawn) | 23.82 and 3.628 | 13.86
O=C(CCOc1ccccc1F)N1CCCCC1Cn1cccn1 (stereo not drawn) | -5.996 | 6.628
O=C(C1CCCC1)N1CCC(C2CCN(Cc3ccc(Cl)cc3)C2)CC1 (stereo not drawn) | 1.406 | 6.69
CCc1ccc(CNc2cc(-c3ccoc3C)nn2CCO)o1 | 20.13 and -11.8 | -0.7171
Cc1cc(C)n(CC2CN(Cc3noc(C)n3)CCO2)n1 (stereo not drawn) | -31.29 | -25.7
COc1cccc(OC)c1OCCn1c(C)c(C)oc1=O | -0.2995 | -3.936
O=C(NCC(F)(F)F)c1ccc(-c2ccco2)[nH]c1=O | 6.879 | -33.59
Cc1nc(NCC23CCCN2CCC3)cc(C2CCCNC2)n1 (stereo not drawn) | -11.58 | -8.585
Cc1ncsc1CNc1cc(N2CCCC2CO)ncn1 (stereo not drawn) | -1.814 | -20.54
Cc1ccc(C)c(OCC(O)CN(C)CC(=O)Nc2cc(C)on2)c1 (stereo not drawn) | -10.48 | -9.748 and -5.259
CC(C)CN1CCC2(CC(C(=O)NCc3cccnc3)=NO2)C1 (stereo not drawn) | -11.23 and -2.12 | -22.28
O=C(Nc1ccncc1)N(CCO)Cc1ccsc1 | 13.89 | 10.36
CCc1noc(C(C)N2CCN(c3ncnc4sccc34)CC2)n1 (stereo not drawn) | 9.663 | 9.103
O=C(Nc1cccc(N2CCCC2)c1)N[C@H](CCO)c1ccccc1 | -8.781 | 3.432
CCC(CC)(CNC(=O)OC(C)(C)C)NC(=O)C1CC1 | -18.96 and -12.26 | -12.77
CC(C)NC(=O)N1CCc2ncc(CN3CCOCC3)n2CC1.O=C(O)C(F)(F)F | 12.3 | -1.193
Cn1cccc1CN1CCC2(CC1)CCN(C(=O)c1cnccn1)CC2.O=C(O)C(F)(F)F | -4.716 and 1.202 | -15.32
COCCN(Cc1cnn(C)c1)c1nc2c(s1)c(C)nn2C | 3.916 and 1.732 | -7.559
CCOc1ccc(OCc2nc3c(c(=O)[nH]2)CCNC3)cc1 | -12.21 and -0.8146 | -0.04243
Cc1ccc(OCCN(C)S(=O)(=O)c2cnn(C)c2)cc1 | 23.83 | -5.211
c1ccc(Cc2nc(C3CC3)nn2-c2ccc3c(c2)OCCO3)nc1 | -95.47 | -64.29
CN(C)CC1CSCCCN1S(=O)(=O)Cc1cccc(F)c1 (stereo not drawn) | 15.15 and 0.187 | 3.741
Cc1noc(C2CCN(C(=O)Nc3ccc(N(C)C)nc3)CC2)n1 | 13.9 | 14.29
CC(C)CC(C#N)NC(=O)c1ccc(Oc2cccnc2)cc1 (stereo not drawn) | 19.65 | 5.024 and -66.55
O=C(O)C(F)(F)F.[H][C@@]12CCN(Cc3c(C)noc3C)[C@]1([H])CC[C@H](C(=O)N1CCCC1)O2 | -2.999 and -12.65 | -23.85
Cn1nnc2c1CCN(Cc1ccccn1)C2COCc1ccccc1.O=C(O)C(F)(F)F.O=C(O)C(F)(F)F (stereo not drawn) | -72.8 | -28.16 and -37
CC(=O)NCCNC(=O)c1sc(-c2ccc(C)cc2C)nc1C | -4.182 | -11.15
CS(=O)(=O)c1cccc(Cl)c1C(=O)NCCN1C(=O)CCC1=O | -1.815 | 4.589
CC(c1ccc(Cl)cc1)N1CCN(CCCS(N)(=O)=O)CC1 (stereo not drawn) | -11.62 | 3.669 and -4.208
Cc1nc(S(=O)(=O)N2CCC3(CCCCC3)C2)cn1C | -0.7003 | -7.614

Some entries from above, unchanged:

Compound	A	B
Cc1nc(NCC23CCCN2CCC3)cc(C2CCCNC2)n1 (stereo not drawn)	-11.58	-8.585
CCN1CCN(C(=O)C(C)N2CCN(Cc3nccn3C)CC2)CC1 (stereo not drawn)	-5.308	3.199
COC(=O)[C@H]1CN(S(C)(=O)=O)CCN1S(C)(=O)=O	-17.74 and 9.229	16.25
Cc1nc(S(=O)(=O)N2CCC3(CCCCC3)C2)cn1C	-0.7003	-7.614
O=C(NCCc1ccn(-c2ccccc2)n1)N1CCSCC1	-3.077	4.218
O=C(O)C(F)(F)F.[H][C@@]12CCN(Cc3c(C)noc3C)[C@]1([H])CC[C@H](C(=O)N1CCCC1)O2	-2.999 and -12.65	-23.85
COCCN(Cc1cnn(C)c1)c1nc2c(s1)c(C)nn2C	3.916 and 1.732	-7.559
O=C(Nc1ccncc1)N(CCO)Cc1ccsc1	13.89	10.36
Cc1ccccc1CCCN1C(=O)CC2(CCSC2)C1=O (stereo not drawn)	14.79 and 36.84	17.98